PubChem BioAssay AID1224826 | NIAID – 2016
Shown is a random part of about 17,000 reagents tested. Over the whole deposit, about 1,110 (6.6%) got an active call. 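Active means lowered or raised reporter signal; replicate intensities are raw and not normalised per plate.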 Not all columns of the deposit are shown.

- Assay: 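Knock-downs that raise or lower Tnf reporter signal after endotoxin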 (primary screen)
- System: RAW264.7 G9 macrophages from mouse bearing reporters for p65 (GFP) and the Tnf promoter (mCherry)
- Reagents: siRNA pool against mouse genes, 100 nM
- Time to read-out: 16 h of LPS stimulation, after 2 days of siRNA transfection
- Conditions: bacterial lipopolysaccharide (Salmonella minnesota R595), 10 ng/ml
- Measurement: 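Nuclear mCherry signal of the Tnf promoter reporter measured by imaging after background removal, scaled to each plate median and turned into robust z-scores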
- Reading the numbers: Tnf reporter robust z-score: higher = stronger Tnf promoter reporter signal after LPS
- Rule for the call: 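a well counts as active at a score of -1.3 or below (Tlr4 knock-down control median) or above 3 (raised signal); controls and wells holding fewer than 50 cells are excluded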
- Meaning of the calls: active = Tnf reporter clearly lowered or raised; inactive = no clear change in Tnf reporter

| target | Tnf reporter robust z-score | fewer than 50 cells in well | Call |
| --- | --- | --- | --- |
| BC002118 (retired record) | 0.35 | enough cells in well | inactive |
| Vps35l (VPS35 endosomal protein sorting factor like) | 0.07 | enough cells in well | inactive |
| Prlhr (prolactin releasing hormone receptor) | 0.42 | enough cells in well | inactive |
| Fam185a (family with sequence similarity 185, member A) | -0.15 | enough cells in well | inactive |
| Prss29 (serine protease 29) | -0.05 | enough cells in well | inactive |
| Snf8 (SNF8, ESCRT-II complex subunit, homolog (S. cerevisiae)) | -1.27 | enough cells in well | inactive |
| Cngb3 (cyclic nucleotide gated channel beta 3) | 0.4 | enough cells in well | inactive |
| Ddi2 (DNA-damage inducible protein 2) | 1.15 | enough cells in well | inactive |
| Cebpa (CCAAT/enhancer binding protein alpha) | – | fewer than 50 cells per well; well left out of calls | inactive |
| D2hgdh (D-2-hydroxyglutarate dehydrogenase) | 1.17 | enough cells in well | inactive |
| Gngt1 | 1.76 | enough cells in well | inactive |
| Cyp4b1 (cytochrome P450, family 4, subfamily b, polypeptide 1) | 1.96 | enough cells in well | inactive |
| Daxx (Fas death domain-associated protein) | -0.44 | enough cells in well | inactive |
| Riiad1 | – | fewer than 50 cells per well; well left out of calls | inactive |
| Abca13 (ATP-binding cassette, sub-family A member 13) | -1.13 | enough cells in well | inactive |

5 entries from above, arranged by “Tnf reporter robust z-score”, low to high.
| target | Tnf reporter robust z-score | fewer than 50 cells in well | Call |
| --- | --- | --- | --- |
| Snf8 (SNF8, ESCRT-II complex subunit, homolog (S. cerevisiae)) | -1.27 | enough cells in well | inactive |
| Fam185a (family with sequence similarity 185, member A) | -0.15 | enough cells in well | inactive |
| Prss29 (serine protease 29) | -0.05 | enough cells in well | inactive |
| Cngb3 (cyclic nucleotide gated channel beta 3) | 0.4 | enough cells in well | inactive |
| Ddi2 (DNA-damage inducible protein 2) | 1.15 | enough cells in well | inactive |

Continued:
| target | Tnf reporter robust z-score | fewer than 50 cells in well | Call |
| --- | --- | --- | --- |
| Cpne5 (copine V) | 0.36 | enough cells in well | inactive |
| Mrrf (mitochondrial ribosome recycling factor) | -0.11 | enough cells in well | inactive |
| Mmp16 (matrix metallopeptidase 16) | 0.46 | enough cells in well | inactive |
| Glrx3 (glutaredoxin 3) | 0.02 | enough cells in well | inactive |
| Nudt1 (nudix hydrolase 1) | 1.16 | enough cells in well | inactive |
| Rhag (Rh associated glycoprotein) | -1.07 | enough cells in well | inactive |
| Bhlhe22 (basic helix-loop-helix family, member e22) | -0.83 | enough cells in well | inactive |
| Foxo6 (forkhead box O6) | -0.53 | enough cells in well | inactive |
| Slc6a18 | – | fewer than 50 cells per well; well left out of calls | inactive |
| Slc17a7 | – | fewer than 50 cells per well; well left out of calls | inactive |
| Zfp62 (zinc finger protein 62) | 0.62 | enough cells in well | inactive |
| AI606181 (expressed sequence AI606181) | 0.36 | enough cells in well | inactive |
| Sec22b (SEC22 homolog B, vesicle trafficking protein) | -0.83 | enough cells in well | inactive |
| Dnaja1 (DnaJ heat shock protein family (Hsp40) member A1) | 0.22 | enough cells in well | inactive |
| Fzd1 (frizzled class receptor 1) | 0.24 | enough cells in well | inactive |
| Phxr4 (per-hexamer repeat gene 4) | 0.75 | enough cells in well | inactive |
| Cnmd (chondromodulin) | 0.08 | enough cells in well | inactive |
| Hhat (hedgehog acyltransferase) | 3.03 | enough cells in well | active |
| Gpr21 (G protein-coupled receptor 21) | 0.24 | enough cells in well | inactive |
| Fkbp7 (FK506 binding protein 7) | -0.78 | enough cells in well | inactive |
| Zfp697 (zinc finger protein 697) | 0.54 | enough cells in well | inactive |
| Wdr11 (WD repeat domain 11) | -0.01 | enough cells in well | inactive |
| Fam163b (family with sequence similarity 163, member B) | 1.58 | enough cells in well | inactive |
| Gpr171 (G protein-coupled receptor 171) | -0.03 | enough cells in well | inactive |
| Mlkl (mixed lineage kinase domain-like) | -1.13 | enough cells in well | inactive |
